Data: the supplement of paper PMC10849652
The list shows a part of the results.

By UniProt entry, the sequences of proteins in these tests, tags left out. Where a name states a change or a piece, a line headed by the entry shows the natural chain unless it says otherwise.
UniProt P30043: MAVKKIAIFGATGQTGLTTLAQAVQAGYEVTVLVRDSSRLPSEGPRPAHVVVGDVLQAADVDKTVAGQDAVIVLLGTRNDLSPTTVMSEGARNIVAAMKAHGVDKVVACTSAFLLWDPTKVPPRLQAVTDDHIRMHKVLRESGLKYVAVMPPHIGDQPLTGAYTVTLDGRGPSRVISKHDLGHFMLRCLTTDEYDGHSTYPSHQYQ
UniProt P15056, whole entry, looked up: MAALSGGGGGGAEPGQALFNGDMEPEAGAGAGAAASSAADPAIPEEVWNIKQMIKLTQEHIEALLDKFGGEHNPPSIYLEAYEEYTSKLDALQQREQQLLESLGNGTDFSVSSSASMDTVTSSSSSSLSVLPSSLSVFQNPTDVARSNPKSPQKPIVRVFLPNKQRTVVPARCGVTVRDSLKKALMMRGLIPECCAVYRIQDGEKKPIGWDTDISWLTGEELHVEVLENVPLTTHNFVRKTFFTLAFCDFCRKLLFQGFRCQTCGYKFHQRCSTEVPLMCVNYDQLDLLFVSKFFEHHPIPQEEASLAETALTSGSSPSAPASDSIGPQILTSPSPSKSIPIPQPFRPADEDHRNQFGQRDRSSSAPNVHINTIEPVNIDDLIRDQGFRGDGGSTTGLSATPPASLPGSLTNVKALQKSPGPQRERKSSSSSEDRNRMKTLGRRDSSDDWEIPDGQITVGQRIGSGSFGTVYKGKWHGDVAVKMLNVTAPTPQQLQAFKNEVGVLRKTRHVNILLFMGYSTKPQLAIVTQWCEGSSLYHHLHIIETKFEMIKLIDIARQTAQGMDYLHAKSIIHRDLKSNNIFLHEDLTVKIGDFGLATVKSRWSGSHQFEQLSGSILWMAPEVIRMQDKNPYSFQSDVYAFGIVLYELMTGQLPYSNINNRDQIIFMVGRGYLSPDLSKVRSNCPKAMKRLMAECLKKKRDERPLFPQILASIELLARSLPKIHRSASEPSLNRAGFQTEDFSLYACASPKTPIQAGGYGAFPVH
UniProt P56945: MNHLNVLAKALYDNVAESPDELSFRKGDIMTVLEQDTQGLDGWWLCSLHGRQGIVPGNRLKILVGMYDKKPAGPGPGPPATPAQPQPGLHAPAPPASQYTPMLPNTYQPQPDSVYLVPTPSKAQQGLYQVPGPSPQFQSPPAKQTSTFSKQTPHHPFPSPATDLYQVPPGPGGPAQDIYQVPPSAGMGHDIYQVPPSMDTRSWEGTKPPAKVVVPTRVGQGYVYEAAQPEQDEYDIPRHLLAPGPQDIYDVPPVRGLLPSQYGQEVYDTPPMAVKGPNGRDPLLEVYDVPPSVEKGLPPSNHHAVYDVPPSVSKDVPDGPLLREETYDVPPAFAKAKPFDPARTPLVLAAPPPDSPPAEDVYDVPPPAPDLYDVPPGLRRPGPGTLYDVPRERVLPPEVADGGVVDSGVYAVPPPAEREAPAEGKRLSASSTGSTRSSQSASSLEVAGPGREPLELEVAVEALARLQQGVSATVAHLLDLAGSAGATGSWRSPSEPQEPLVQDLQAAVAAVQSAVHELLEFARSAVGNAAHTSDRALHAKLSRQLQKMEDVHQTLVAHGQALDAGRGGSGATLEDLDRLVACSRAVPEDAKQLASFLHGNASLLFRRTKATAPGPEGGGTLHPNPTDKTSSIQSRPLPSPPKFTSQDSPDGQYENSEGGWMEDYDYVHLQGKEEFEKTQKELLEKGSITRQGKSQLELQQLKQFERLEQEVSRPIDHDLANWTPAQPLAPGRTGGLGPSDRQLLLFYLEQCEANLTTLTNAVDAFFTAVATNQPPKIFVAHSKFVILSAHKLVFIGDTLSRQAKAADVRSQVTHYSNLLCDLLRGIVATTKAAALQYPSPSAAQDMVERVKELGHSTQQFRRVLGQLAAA
UniProt Q86UU0: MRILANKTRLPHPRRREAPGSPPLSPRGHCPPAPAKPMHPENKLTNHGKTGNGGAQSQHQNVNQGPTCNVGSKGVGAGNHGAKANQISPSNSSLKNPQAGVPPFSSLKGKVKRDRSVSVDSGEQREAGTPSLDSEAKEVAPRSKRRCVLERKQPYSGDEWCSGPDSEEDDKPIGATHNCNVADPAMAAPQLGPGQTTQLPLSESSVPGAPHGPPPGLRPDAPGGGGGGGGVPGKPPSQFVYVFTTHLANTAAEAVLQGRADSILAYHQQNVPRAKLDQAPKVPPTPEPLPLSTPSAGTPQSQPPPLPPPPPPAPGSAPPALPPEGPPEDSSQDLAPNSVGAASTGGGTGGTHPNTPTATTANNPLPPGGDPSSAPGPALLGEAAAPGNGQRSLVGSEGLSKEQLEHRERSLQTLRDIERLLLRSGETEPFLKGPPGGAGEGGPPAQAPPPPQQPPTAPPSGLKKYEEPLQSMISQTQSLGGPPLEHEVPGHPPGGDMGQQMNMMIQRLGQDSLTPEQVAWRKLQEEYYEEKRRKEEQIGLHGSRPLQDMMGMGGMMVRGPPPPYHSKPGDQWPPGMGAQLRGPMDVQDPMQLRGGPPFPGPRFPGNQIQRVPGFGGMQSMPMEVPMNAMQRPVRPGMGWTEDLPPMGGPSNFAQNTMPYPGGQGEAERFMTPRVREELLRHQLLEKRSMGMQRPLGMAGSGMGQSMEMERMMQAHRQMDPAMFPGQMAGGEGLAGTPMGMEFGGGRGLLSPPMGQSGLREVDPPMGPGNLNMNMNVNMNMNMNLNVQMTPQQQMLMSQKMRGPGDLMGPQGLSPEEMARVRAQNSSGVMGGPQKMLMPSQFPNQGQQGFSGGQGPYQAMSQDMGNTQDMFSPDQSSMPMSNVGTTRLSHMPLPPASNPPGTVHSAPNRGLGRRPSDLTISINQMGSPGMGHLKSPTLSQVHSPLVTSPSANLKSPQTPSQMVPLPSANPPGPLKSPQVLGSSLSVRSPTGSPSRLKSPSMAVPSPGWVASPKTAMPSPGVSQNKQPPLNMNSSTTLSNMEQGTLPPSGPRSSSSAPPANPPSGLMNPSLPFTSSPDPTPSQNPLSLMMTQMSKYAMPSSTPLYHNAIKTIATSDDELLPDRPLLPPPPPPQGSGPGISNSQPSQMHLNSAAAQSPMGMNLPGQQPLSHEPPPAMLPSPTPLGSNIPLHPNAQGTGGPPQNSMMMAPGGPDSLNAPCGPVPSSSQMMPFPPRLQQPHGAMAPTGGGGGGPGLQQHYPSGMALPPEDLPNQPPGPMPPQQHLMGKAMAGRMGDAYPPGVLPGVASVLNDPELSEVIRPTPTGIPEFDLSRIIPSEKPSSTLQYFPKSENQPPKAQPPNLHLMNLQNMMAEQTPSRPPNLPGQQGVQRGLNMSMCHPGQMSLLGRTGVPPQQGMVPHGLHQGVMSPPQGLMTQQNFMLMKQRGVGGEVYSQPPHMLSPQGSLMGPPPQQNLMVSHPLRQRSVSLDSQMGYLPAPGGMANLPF
UniProt Q92560: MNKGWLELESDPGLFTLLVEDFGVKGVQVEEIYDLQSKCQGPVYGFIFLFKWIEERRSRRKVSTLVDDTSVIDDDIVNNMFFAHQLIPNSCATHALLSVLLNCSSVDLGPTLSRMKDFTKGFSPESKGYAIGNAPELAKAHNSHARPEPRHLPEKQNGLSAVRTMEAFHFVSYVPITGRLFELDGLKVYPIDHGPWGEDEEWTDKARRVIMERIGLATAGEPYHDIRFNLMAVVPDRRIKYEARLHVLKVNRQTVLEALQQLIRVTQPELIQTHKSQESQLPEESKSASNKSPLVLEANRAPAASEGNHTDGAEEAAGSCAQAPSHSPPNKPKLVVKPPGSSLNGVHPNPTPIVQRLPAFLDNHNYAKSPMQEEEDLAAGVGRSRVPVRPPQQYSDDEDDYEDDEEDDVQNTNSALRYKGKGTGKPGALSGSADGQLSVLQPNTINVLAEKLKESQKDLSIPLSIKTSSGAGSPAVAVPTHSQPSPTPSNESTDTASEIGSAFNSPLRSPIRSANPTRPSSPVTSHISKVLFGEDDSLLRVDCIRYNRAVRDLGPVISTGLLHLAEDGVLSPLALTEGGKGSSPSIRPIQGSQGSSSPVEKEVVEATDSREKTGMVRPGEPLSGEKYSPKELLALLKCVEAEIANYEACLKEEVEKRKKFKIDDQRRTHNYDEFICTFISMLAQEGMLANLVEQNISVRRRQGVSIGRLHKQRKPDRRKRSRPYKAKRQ
UniProt Q8NCR0: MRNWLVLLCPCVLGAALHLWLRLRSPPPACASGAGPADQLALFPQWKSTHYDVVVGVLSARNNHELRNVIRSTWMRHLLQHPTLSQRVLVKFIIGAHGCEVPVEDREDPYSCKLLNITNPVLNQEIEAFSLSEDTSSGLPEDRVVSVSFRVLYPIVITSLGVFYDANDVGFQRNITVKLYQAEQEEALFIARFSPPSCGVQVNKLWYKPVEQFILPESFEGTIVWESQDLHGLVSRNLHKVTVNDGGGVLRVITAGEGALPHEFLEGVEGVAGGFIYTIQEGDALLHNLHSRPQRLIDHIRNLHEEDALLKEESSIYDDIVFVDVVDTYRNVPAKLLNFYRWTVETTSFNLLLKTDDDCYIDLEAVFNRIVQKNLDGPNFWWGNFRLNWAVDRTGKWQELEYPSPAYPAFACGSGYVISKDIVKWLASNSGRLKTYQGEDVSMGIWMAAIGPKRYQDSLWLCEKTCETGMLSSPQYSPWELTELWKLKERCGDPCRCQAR
UniProt P54252: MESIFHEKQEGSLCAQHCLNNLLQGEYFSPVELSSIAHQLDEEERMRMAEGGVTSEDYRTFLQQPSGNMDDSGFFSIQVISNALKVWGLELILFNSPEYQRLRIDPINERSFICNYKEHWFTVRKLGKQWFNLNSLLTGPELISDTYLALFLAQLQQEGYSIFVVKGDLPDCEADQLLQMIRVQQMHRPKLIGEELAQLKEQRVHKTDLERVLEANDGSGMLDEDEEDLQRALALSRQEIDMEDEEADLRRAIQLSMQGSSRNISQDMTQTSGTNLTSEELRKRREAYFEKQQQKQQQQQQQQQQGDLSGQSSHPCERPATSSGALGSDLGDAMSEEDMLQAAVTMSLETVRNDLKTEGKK
UniProt Q92934: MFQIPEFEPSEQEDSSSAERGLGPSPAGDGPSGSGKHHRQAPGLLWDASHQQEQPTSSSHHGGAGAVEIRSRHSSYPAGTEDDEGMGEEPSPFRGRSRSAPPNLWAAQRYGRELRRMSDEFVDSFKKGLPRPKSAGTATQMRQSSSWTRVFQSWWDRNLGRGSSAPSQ
UniProt Q00973: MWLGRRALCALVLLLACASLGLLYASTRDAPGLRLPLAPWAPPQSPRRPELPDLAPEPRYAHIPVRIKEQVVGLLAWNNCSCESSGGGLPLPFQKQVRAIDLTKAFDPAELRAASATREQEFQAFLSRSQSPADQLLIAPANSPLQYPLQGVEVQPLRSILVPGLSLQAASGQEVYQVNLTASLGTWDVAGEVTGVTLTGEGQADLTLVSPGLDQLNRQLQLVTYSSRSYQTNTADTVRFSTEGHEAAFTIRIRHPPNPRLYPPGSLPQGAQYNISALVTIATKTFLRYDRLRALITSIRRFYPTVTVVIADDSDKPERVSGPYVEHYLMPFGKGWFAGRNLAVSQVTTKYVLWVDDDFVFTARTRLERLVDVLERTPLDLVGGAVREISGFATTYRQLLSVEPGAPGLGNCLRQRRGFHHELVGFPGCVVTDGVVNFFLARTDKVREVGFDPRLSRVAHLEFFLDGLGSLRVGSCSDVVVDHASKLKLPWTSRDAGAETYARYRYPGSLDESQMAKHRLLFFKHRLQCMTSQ
UniProt Q8TDN6: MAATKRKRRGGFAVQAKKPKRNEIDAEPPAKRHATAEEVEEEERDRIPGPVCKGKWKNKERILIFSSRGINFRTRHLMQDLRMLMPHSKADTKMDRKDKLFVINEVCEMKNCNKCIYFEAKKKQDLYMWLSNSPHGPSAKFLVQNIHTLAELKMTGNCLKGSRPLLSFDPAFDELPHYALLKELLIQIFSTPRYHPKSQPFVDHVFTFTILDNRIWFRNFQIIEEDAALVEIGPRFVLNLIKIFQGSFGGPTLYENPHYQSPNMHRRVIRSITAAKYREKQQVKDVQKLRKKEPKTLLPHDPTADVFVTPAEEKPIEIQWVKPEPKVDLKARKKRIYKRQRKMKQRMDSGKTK
UniProt Q9UQB8: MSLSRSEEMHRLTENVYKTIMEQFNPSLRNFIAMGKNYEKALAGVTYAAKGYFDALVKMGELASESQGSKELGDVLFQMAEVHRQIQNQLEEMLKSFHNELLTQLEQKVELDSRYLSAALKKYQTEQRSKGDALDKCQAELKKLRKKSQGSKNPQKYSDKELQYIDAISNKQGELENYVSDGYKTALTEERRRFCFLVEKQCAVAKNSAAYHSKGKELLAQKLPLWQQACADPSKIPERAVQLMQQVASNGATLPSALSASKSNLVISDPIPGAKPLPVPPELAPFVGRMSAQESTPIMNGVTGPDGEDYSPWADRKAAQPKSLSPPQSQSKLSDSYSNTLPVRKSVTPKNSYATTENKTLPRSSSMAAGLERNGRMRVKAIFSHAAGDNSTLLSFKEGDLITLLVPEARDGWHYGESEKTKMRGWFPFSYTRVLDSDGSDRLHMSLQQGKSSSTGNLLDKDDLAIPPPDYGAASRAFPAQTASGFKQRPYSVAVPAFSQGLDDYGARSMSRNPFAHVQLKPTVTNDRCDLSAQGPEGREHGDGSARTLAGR

How the values were obtained:
Test in all cases: log2 fold change, soluble protein after heating vs DMSO (PISA); higher = thermal stabilisation; K562 cells, 10 uM, 30 min; active = over 0.2 and 3.5 SD of the protein, either way, in both replicates (recomputed)
[1] = compound: CC[C@@H]1C(=O)N(C)c2cnc(Nc3ccc(C(=O)NC4CCN(C)CC4)cc3OC)nc2N1C1CCCC1
How it was run: (§1)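 Thermal stability values are relative to control samples and come from duplicates. They are expressed as log2 fold changes. For measurement, K562 cells (2×10^6 cells/mL) received 10 μM compound for 30 min, and aliquots were heated for 3 min over 48°C-58°C, pooled, and extracted at 4°C in PBS with 0.5% NP-40. Soluble protein, the supernatant after 21,000xg for 90 min, was quantified by TMTpro 16plex LC-MS/MS with equalised channel sums.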

volasertib = compound: CC[C@@H]1C(=O)N(C)c2cnc(Nc3ccc(C(=O)N[C@H]4CC[C@H](N5CCN(CC6CC6)CC5)CC4)cc3OC)nc2N1C(C)C [volasertib]
How it was run: as §1

epoxomicin = compound: CC[C@H](C)[C@@H](C(=O)N[C@@H]([C@@H](C)O)C(=O)N[C@@H](CC(C)C)C(=O)[C@]1(CO1)C)NC(=O)[C@H]([C@@H](C)CC)N(C)C(=O)C [epoxomicin]
How it was run: as §1

[2] = compound: CCn1c(C(=O)N(C2CC2)C2CC2)cc2c3c(ncn3C)c(Nc3cc(C)n(C)n3)nc21
How it was run: as §1

[3] = compound: CCn1cc(-c2ccnc3[nH]c(-c4cccc(CN(C)C)c4)cc23)c(-c2ccc(NC(=O)N(C)C)cc2)n1
How it was run: as §1

[4] = compound: CN(C)CC(=O)Nc1ccc2[nH]c(=O)c3ccccc3c2c1
How it was run: as §1

rosiglitazone = compound: CN(CCOC1=CC=C(C=C1)C[C@H]2C(=O)NC(=O)S2)C3=CC=CC=N3 (racemic) [rosiglitazone]
How it was run: as §1

[5] = compound: CN1C2=C(C3=C1C(=O)N(N=C3)CC4=CC(=CC=C4)N)SC(=C2)S(=O)C
How it was run: as §1

[6] = compound: CN1CCC(CNc2ccc3ncc(-c4cccc(OC(F)(F)F)c4)n3n2)CC1
How it was run: as §1

[7] = compound: CC[C@H](C)N1C=C(C2=C(C=C(C=C21)C3=CN=C(C=C3)N4CCNCC4)C(=O)NCC5=C(C=C(NC5=O)C)C)C
How it was run: as §1

| Target | log2 fold change [1] | log2 fold change (volasertib) | log2 fold change (epoxomicin) | log2 fold change [2] | log2 fold change [3] | log2 fold change [4] | log2 fold change (rosiglitazone) | log2 fold change [5] | log2 fold change [6] | log2 fold change [7] |
| --- | --- | --- | --- | --- | --- | --- | --- | --- | --- | --- |
| AVEN (UniProt Q9NQS1) | inactive: 0.07 | inactive: 0.031 | inactive: 0.015 | inactive: 0.062 | inactive: 0.004 | inactive: -0.059 | inactive: -0.027 | inactive: 0.044 | inactive: -0.104 | – |
| BLVRB (UniProt P30043) | inactive: 0.008 | inactive: 0.046 | inactive: 0.161 | – | inactive: -0.078 | inactive: 0.014 | – | inactive: -0.049 | inactive: 0.127 | inactive: 0.012 |
| BRAF (UniProt P15056) | inactive: 0 | inactive: -0.097 | inactive: 0.04 | – | inactive: 0.029 | inactive: 0.036 | – | inactive: -0.039 | inactive: -0.07 | inactive: 0.043 |
| BAHD1 (UniProt Q8TBE0) | inactive: -0.017 | inactive: -0.018 | – | inactive: -0.042 | inactive: -0.128 | – | – | – | inactive: -0.02 | inactive: 0.054 |
| BCL7A isoform 2 (UniProt Q4VC05) | inactive: 0.238 | inactive: 0.076 | inactive: -0.114 | inactive: 0.022 | – | – | – | – | – | – |
| BCAR1 isoform 6 (UniProt P56945) | inactive: -0.094 | inactive: -0.076 | inactive: -0.018 | inactive: -0.011 | inactive: 0.018 | inactive: 0.008 | inactive: -0.027 | inactive: 0.09 | inactive: -0.017 | – |
| BECN1 (UniProt Q14457) | inactive: 0.069 | inactive: -0.003 | inactive: 0.07 | – | inactive: -0.107 | inactive: -0.003 | – | inactive: 0.024 | inactive: 0.009 | inactive: 0.029 |
| BCL9L (UniProt Q86UU0) | inactive: 0 | inactive: 0.036 | inactive: 0.038 | – | inactive: -0.024 | inactive: -0.003 | – | inactive: -0.023 | inactive: -0.019 | inactive: 0.044 |
| BAP1 (UniProt Q92560) | inactive: -0.037 | inactive: 0.13 | inactive: -0.092 | – | inactive: 0.101 | inactive: -0.093 | – | inactive: 0.047 | inactive: 0.055 | inactive: 0 |
| BPIFB1 (UniProt Q8TDL5) | inactive: -0.157 | – | – | – | – | – | – | – | – | inactive: 0.592 |
| B4GALT1 (UniProt P15291) | active: -0.324 | active: -0.571 | inactive: 0.051 | – | inactive: -0.048 | inactive: -0.03 | – | inactive: -0.081 | active: -0.28 | inactive: 0.033 |
| ATR (UniProt Q13535) | inactive: -0.063 | inactive: -0.197 | inactive: 0.048 | – | inactive: -0.041 | inactive: 0.052 | – | inactive: -0.017 | inactive: 0 | inactive: -0.02 |
| B3GALNT2 (UniProt Q8NCR0) | inactive: 0.18 | inactive: -0.118 | inactive: -0.083 | inactive: 0.106 | inactive: 0.056 | inactive: -0.025 | inactive: 0.02 | – | inactive: 0.094 | – |
| ATXN3 isoform 1 (UniProt P54252) | inactive: -0.371 | active: -0.401 | – | – | inactive: -0.016 | inactive: -0.083 | – | – | inactive: -0.015 | inactive: 0.099 |
| BLOC1S3 (UniProt Q6QNY0) | inactive: 0.024 | inactive: 0.018 | inactive: -0.011 | – | inactive: -0.017 | inactive: 0.058 | – | inactive: -0.062 | inactive: -0.01 | inactive: -0.04 |
| BRD3 (UniProt Q15059) | active: 1.63 | active: 1.46 | – | – | active: 0.681 | inactive: 0.073 | – | inactive: -0.143 | inactive: 0.106 | inactive: -0.088 |

| Target | log2 fold change [1] | log2 fold change (volasertib) | log2 fold change (epoxomicin) | log2 fold change [2] | log2 fold change [3] | log2 fold change [4] | log2 fold change (rosiglitazone) | log2 fold change [5] | log2 fold change [6] | log2 fold change [7] |
| --- | --- | --- | --- | --- | --- | --- | --- | --- | --- | --- |
| BCLAF1 (UniProt Q9NYF8) | inactive: -0.089 | inactive: -0.08 | inactive: -0.027 | – | inactive: -0.002 | inactive: 0.099 | – | inactive: -0.015 | inactive: 0.024 | inactive: 0.024 |
| BAD (UniProt Q92934) | inactive: -0.043 | inactive: 0.038 | inactive: -0.086 | – | inactive: 0.022 | inactive: -0.125 | – | inactive: -0.069 | inactive: -0.006 | inactive: 0.085 |
| B4GALNT1 (UniProt Q00973) | inactive: -0.243 | inactive: -0.097 | inactive: -0.059 | – | inactive: 0.01 | inactive: 0.143 | – | inactive: -0.103 | inactive: 0.173 | inactive: -0.115 |
| BMP2K (UniProt Q9NSY1) | inactive: 0.13 | inactive: 0.115 | inactive: -0.053 | – | inactive: 0.023 | inactive: -0.058 | – | inactive: 0.008 | active: 0.656 | inactive: -0.02 |
| AUH (UniProt Q13825) | inactive: 0.011 | active: 0.486 | – | – | inactive: -0.094 | inactive: 0.128 | – | inactive: -0.183 | inactive: 0.086 | – |
| ATXN7L3 isoform 2 (UniProt Q14CW9) | inactive: -0.042 | – | – | – | – | – | – | – | – | inactive: -0.166 |
| BCAP29 isoform 2 (UniProt Q9UHQ4) | inactive: 0.022 | inactive: 0.085 | inactive: -0.096 | – | inactive: -0.011 | inactive: -0.008 | – | inactive: -0.044 | inactive: 0.05 | inactive: -0.072 |
| BRK1 isoform 2 (UniProt Q8WUW1) | inactive: 0.074 | inactive: -0.021 | active: 0.497 | – | inactive: -0.009 | inactive: 0.031 | – | inactive: -0.053 | inactive: 0.137 | inactive: -0.02 |
| BORCS7 (UniProt Q96B45) | inactive: -0.018 | inactive: -0.011 | – | inactive: 0.004 | inactive: 0.048 | inactive: -0.043 | inactive: -0.029 | inactive: -0.154 | inactive: -0.017 | inactive: -0.12 |
| ATRN (UniProt O75882) | inactive: 0.029 | inactive: -0.094 | inactive: 0.063 | – | inactive: 0.004 | inactive: -0.01 | – | inactive: 0.095 | inactive: 0.121 | inactive: -0.019 |
| BCAS3 isoform 8 (UniProt Q9H6U6) | inactive: -0.055 | inactive: -0.333 | – | inactive: 0.001 | inactive: -0.06 | – | – | inactive: -0.159 | inactive: -0.012 | – |
| BCCIP isoform 2 (UniProt Q9P287) | inactive: -0.037 | inactive: -0.038 | inactive: 0.019 | – | inactive: 0.022 | inactive: 0.026 | – | inactive: -0.042 | inactive: -0.028 | inactive: 0.044 |
| ATRAID isoform 3 (UniProt Q6UW56) | inactive: -0.003 | inactive: 0.131 | – | inactive: 0.065 | inactive: -0.17 | inactive: -0.013 | inactive: 0.062 | inactive: -0.038 | inactive: 0.039 | inactive: -0.044 |
| BCCIP (UniProt Q9P287) | inactive: -0.009 | inactive: -0.047 | inactive: 0.092 | – | inactive: 0.033 | inactive: 0.019 | – | inactive: 0.047 | inactive: -0.043 | inactive: -0.005 |
| BRIX1 (UniProt Q8TDN6) | inactive: 0.166 | inactive: 0.317 | inactive: -0.343 | – | inactive: 0.31 | inactive: -0.143 | – | inactive: 0.36 | inactive: 0.481 | inactive: 0.048 |
| BAIAP2 (UniProt Q9UQB8) | inactive: -0.045 | inactive: -0.089 | inactive: 0.14 | – | inactive: -0.05 | inactive: -0.019 | – | inactive: -0.015 | inactive: -0.142 | inactive: 0.082 |

Already shown: an excerpt of the list.

| Target | log2 fold change [1] | log2 fold change (volasertib) | log2 fold change (epoxomicin) | log2 fold change [2] | log2 fold change [3] | log2 fold change [4] | log2 fold change (rosiglitazone) | log2 fold change [5] | log2 fold change [6] | log2 fold change [7] |
| --- | --- | --- | --- | --- | --- | --- | --- | --- | --- | --- |
| BORCS7 (UniProt Q96B45) | inactive: -0.018 | inactive: -0.011 | – | inactive: 0.004 | inactive: 0.048 | inactive: -0.043 | inactive: -0.029 | inactive: -0.154 | inactive: -0.017 | inactive: -0.12 |
| ATRN (UniProt O75882) | inactive: 0.029 | inactive: -0.094 | inactive: 0.063 | – | inactive: 0.004 | inactive: -0.01 | – | inactive: 0.095 | inactive: 0.121 | inactive: -0.019 |
| BCAS3 isoform 8 (UniProt Q9H6U6) | inactive: -0.055 | inactive: -0.333 | – | inactive: 0.001 | inactive: -0.06 | – | – | inactive: -0.159 | inactive: -0.012 | – |
